Record: PubChem BioAssay AID743121 (NCATS, 2013)
The whole screen tested about 26,000 reagents; below is a part drawn at random. 167 of all reagents (0.63%) count as active. 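Calls are per gene from RSA p-values that are not deposited; an individual active-marked siRNA can sensitise only weakly.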 Unmarked entries are inactive. The numbers tell different reagents against one gene apart. Further read-outs or replicates are left out here.

Aim: 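Genes whose silencing strengthens cell killing by camptothecin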 (primary screen)
Cells: MDA-MB-231 cells, a human breast cancer line
Reagent: single siRNA against human genes, 20 nM siRNA (0.8 pmol per well)
Time to read-out: 120 h (drug added 48 h after transfection, read 72 h later)
Conditions: camptothecin 20 nM (about EC30) for 72 h; vehicle 0.1% DMSO in parallel plates
Read-out: 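Cell viability by ATP luminescence (CellTiter-Glo) as % of non-targeting siRNA wells, and the log2 ratio of viability without drug over viability with camptothecin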
Reading the numbers: log2 vehicle/camptothecin viability: higher = stronger sensitisation to camptothecin; viability with camptothecin: higher = more viable cells
Hit rule: 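Active genes have an RSA gene-level p-value below 0.001, computed from the ratios of their separate siRNAs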

SOCS5 (suppressor of cytokine signaling 5) #1
- log2 vehicle/camptothecin viability: 0.0296
- viability with camptothecin (% of control): 48.8

SOCS5 (suppressor of cytokine signaling 5) #2
- log2 vehicle/camptothecin viability: -0.0477
- viability with camptothecin (% of control): 107

SOCS5 (suppressor of cytokine signaling 5) #3
- log2 vehicle/camptothecin viability: 0.308
- viability with camptothecin (% of control): 31.3

SOCS5 (suppressor of cytokine signaling 5) #4
- log2 vehicle/camptothecin viability: 0.28
- viability with camptothecin (% of control): 71.5

H2BC17 (H2B clustered histone 17) #1
- log2 vehicle/camptothecin viability: -0.387
- viability with camptothecin (% of control): 29.8

H2BC17 (H2B clustered histone 17) #2
- log2 vehicle/camptothecin viability: -0.0209
- viability with camptothecin (% of control): 68

H2BC17 (H2B clustered histone 17) #3
- log2 vehicle/camptothecin viability: -0.398
- viability with camptothecin (% of control): 113

H2BC17 (H2B clustered histone 17) #4
- log2 vehicle/camptothecin viability: -0.0519
- viability with camptothecin (% of control): 106

Copied from the list.
SOCS5 (suppressor of cytokine signaling 5) #2, log2 vehicle/camptothecin viability = -0.0477
Result of SOCS5 (suppressor of cytokine signaling 5) #3 under “viability with camptothecin (% of control)”: 31.3

Additional reagents:
PCDH18 (protocadherin 18) #1
- log2 vehicle/camptothecin viability: -0.105
- viability with camptothecin (% of control): 75.2

PCDH18 (protocadherin 18) #2
- log2 vehicle/camptothecin viability: -0.402
- viability with camptothecin (% of control): 52.4

PCDH18 (protocadherin 18) #3
- log2 vehicle/camptothecin viability: -0.301
- viability with camptothecin (% of control): 97.8

DUSP15 (dual specificity phosphatase 15) #1
- log2 vehicle/camptothecin viability: 0.128
- viability with camptothecin (% of control): 78.5

DUSP15 (dual specificity phosphatase 15) #2
- log2 vehicle/camptothecin viability: -0.128
- viability with camptothecin (% of control): 97.8

DUSP15 (dual specificity phosphatase 15) #3
- log2 vehicle/camptothecin viability: -0.512
- viability with camptothecin (% of control): 89.6

DUSP15 (dual specificity phosphatase 15) #4
- log2 vehicle/camptothecin viability: -0.138
- viability with camptothecin (% of control): 69.7
